Measurements from patent US11370757B2 (priority 2017, dated 2022).
Strings that start with PEPTIDE1 are HELM notation: dots part the residues, brackets hold end groups and non-standard residues.

Test: Fmoc solid-phase peptide synthesis; Rink Amide resin; HBTU/HOBt
Conditions: whole synthesis, overall

In the case of “PEPTIDE1{P.P.G.[Hyp].P.G.[Nin].P.P.G.[Hyp].P.G.[Nin].P.P.G.[Hyp].P.G.[Nin].P.P.G.[Hyp].P.G.[Nin].P.P.G.[Hyp].P.G.[am]}$$$$V2.0”, the isolated yield is reported as 41%.
